Data: PubChem BioAssay AID328 (DTP/NCI, 2004)
The list shows only some results of the screen, not a fair sample: it gathers tests that were run many times, whatever their T/C, doses with no T/C, and many T/C values between a quarter and a half above the control. Other doses and runs of a compound stand elsewhere. T/C gives the treated animals as a percentage of the vehicle group. Some doses have a count of surviving animals in place of a T/C: the source files T/C as zero there, which appears to mark a toxic dose or a test without result, not a measured value. Some doses without a T/C left all or most animals alive at the check, yet need not have been tolerated: survival well below the control is almost never listed, so the zero probably covers shortened survival too. Survivors were counted at the toxicity check, usually on the fifth day, unless a day is given; later deaths do not show. Schedules are NCI's codes, taken here to give the interval after Q, in days (D) or hours (H), and the number of doses after X. Some entries were tested several times; the values are given in rising order. For survival time, this PubChem deposit counts one and a half times the control or more as active, and values a quarter to a half above the control carry no call in these data; other NCI protocols may use other cut-offs. Additions like (4×) give the number of equal values in this list. Some T/C values carry the count of animals alive at the toxicity check (mostly the fifth day); without a count, all were alive then.

Tested on: BDF1 mice, P388 leukemia ip, median survival T/C
Test: NCI In Vivo Anticancer Drug Screen. Data for tumor model P388 Leukemia (intraperitoneal) in B6D2F1 (BDF1) mice
Conditions: T/C endpoint: median survival time, higher T/C = longer survival
Summary of the method: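 Read-out is survival of treated animals expressed relative to the vehicle group, as a T/C ratio.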

[1] = dose: 12.5 mg/kg/injection, schedule: Q01DX009 (ip), vehicle: Klucel (hydroxypropylcellulose) (HPC)
[2] = dose: 25.0 mg/kg/injection, schedule: Q01DX009 (ip), vehicle: Klucel (hydroxypropylcellulose) (HPC)
[3] = dose: 50.0 mg/kg/injection, schedule: Q01DX009 (ip), vehicle: Klucel (hydroxypropylcellulose) (HPC)
[4] = dose: 16.0 mg/kg/injection, schedule: Q01DX009 (ip), vehicle: Klucel (hydroxypropylcellulose) (HPC)
[5] = dose: 32.0 mg/kg/injection, schedule: Q01DX009 (ip), vehicle: Klucel (hydroxypropylcellulose) (HPC)

## Cc1cc2nc3c(=O)[nH]c(=O)nc-3n(CC(O)C(O)C(O)C(O)CO)c2cc1C (configuration not stated)
dose: 50.0 mg/kg/injection, schedule: Q01DX010 (ip), vehicle: saline
  survivor count: 6 of 6
dose: 200.0 mg/kg/injection, schedule: Q01DX010 (ip), vehicle: saline
  T/C: 125 % of control

## Nc1nccnc1C(=O)O
dose: 200.0 mg/kg/injection, schedule: Q01DX009 (ip), vehicle: water
  T/C: 126 % of control

## C(#Cc1ccccc1)COCC1CO1 (configuration not stated)
dose: 200.0 mg/kg/injection, schedule: Q01DX009 (ip), vehicle: saline with Tween-80
  T/C: 125 % of control
dose: 400.0 mg/kg/injection, schedule: Q01DX009 (ip), vehicle: saline with Tween-80
  T/C: 133 % of control

## COc1cccc(/C=N/NC(=O)C[n+]2ccccc2)c1OC
dose: 100.0 mg/kg/injection, schedule: Q04DX003 (ip), vehicle: saline with Tween-80
  survivor count: 5 of 6
dose: 200.0 mg/kg/injection, schedule: Q04DX003 (ip), vehicle: saline with Tween-80
  survivor count: 0 of 6

## CNC(=S)N/N=C\C(=N/NC(=S)NC)c1ccco1
dose: 60.0 mg/kg/injection, schedule: Q01DX009 (ip), vehicle: saline with Tween-80
  survivor count: 6 of 6

## CC(O)C(C)(O)C(=O)O (configuration not stated)
dose: 400.0 mg/kg/injection, schedule: Q04DX003 (ip), vehicle: saline
  survivor count: 3 of 6

## CCCCCCC(=O)O[C@H]1CC[C@H]2[C@@H]3CCC4=CC(=O)CC[C@]4(C)[C@H]3CC[C@]12C
dose: 100.0 mg/kg/injection, schedule: Q01DX009 (ip), vehicle: other
  T/C: 125 % of control

## CC[n+]1ccc(Nc2ccc(NC(=O)c3ccc(Nc4cc[n+](CC)c5ccc([N+](=O)[O-])cc45)cc3)cc2)cc1
dose: 2.6 mg/kg/injection, schedule: Q04DX003 (ip), vehicle: saline
  T/C: 140 % of control
dose: 9.0 mg/kg/injection, schedule: Q04DX003 (ip), vehicle: saline
  T/C: 145 % of control

## CCCCCCCSc1ncnc2c1ncn2CO
dose: 100.0 mg/kg/injection, schedule: Q01DX009 (ip), vehicle: saline
  T/C: 135 % of control
dose: 200.0 mg/kg/injection, schedule: Q01DX009 (ip), vehicle: saline
  T/C: 125 % of control
dose: 400.0 mg/kg/injection, schedule: Q01DX009 (ip), vehicle: saline
  survivor count: 6 of 6
dose: 800.0 mg/kg/injection, schedule: Q01DX009 (ip), vehicle: saline
  survivor count: 1 of 6

## Cc1ccc(C(=O)C[S+](C)C)c(C)c1
dose: 115.0 mg/kg/injection, schedule: Q01DX009 (ip), vehicle: saline
  survivor count: 0 of 6
dose: 170.0 mg/kg/injection, schedule: Q01DX009 (ip), vehicle: saline
  survivor count: 0 of 6
dose: 225.0 mg/kg/injection, schedule: Q04DX003 (ip), vehicle: saline
  survivor count: 0 of 6

## CC(C)(C)NCC(CN(CC(CNC(C)(C)C)C(=O)c1ccccc1)C(C)(C)C)C(=O)c1ccccc1 (configuration not stated)
[1]
  T/C: 127 % of control (3×)
  survivor count: 0 of 6
[2]
  T/C: 104, 113, 122 % of control
  survivor count: 0 of 6
[3]
  T/C: 113 [4 of 6 alive] and 127 % of control
  survivor count: 0 of 6 and 2 of 6

## O=C1NC(c2cccc3ccccc23)Nc2ccccc21 (configuration not stated)
[4]
  T/C: 127 % of control
  survivor count: 9 of 9
[5]
  T/C: 145 % of control
  survivor count: 9 of 10
dose: 128.0 mg/kg/injection, schedule: Q01DX009 (ip), vehicle: Klucel (hydroxypropylcellulose) (HPC)
  survivor count: 10 of 10 and 6 of 6
dose: 256.0 mg/kg/injection, schedule: Q01DX009 (ip), vehicle: Klucel (hydroxypropylcellulose) (HPC)
  survivor count: 0 of 10 and 3 of 6
dose: 400.0 mg/kg/injection, schedule: Q01DX009 (ip), vehicle: water
  survivor count: 10 of 10
